Source: the supplement of paper PMC12024529
Counter-ions that a name gives are not always drawn. The list shows a part of the results. Plates or batches differ in their baseline, so values are only roughly comparable.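 The cells are HEK293 lines stably expressing B-domain-deleted factor VIII fused to Gaussia luciferase, either wild type or a misfolding-prone missense mutant. Each score is mean luminescence from triplicate wells minus the DMSO mean, divided by the DMSO standard deviation; a score of 2 or more counts as a hit, and low scores may reflect lower secretion or poorer cell viability.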

test system: HEK293 WT BDD-FVIII-Gluc; assay: secreted FVIII-Gluc luciferase Z-score vs DMSO control; higher = more FVIII-Gluc secretion; conditions: 5 µM; 24 h

Compound | secreted FVIII-Gluc luciferase Z-score
CN1CCN(c2cc3c(cc2F)c(=O)c(C(=O)O)cn3-c2ccc(F)cc2)CC1 [Difloxacin HCl] | inactive: 0.547
Cc1onc(-c2ccccc2)c1-c1ccc(S(N)(=O)=O)cc1 [Bextra (valdecoxib)] | inactive: -1.28
CC(C)(Oc1ccc(CCNC(=O)c2ccc(Cl)cc2)cc1)C(=O)O [Bezafibrate] | active: 6.82
CCCc1nn(C)c2c(=O)[nH]c(-c3cc(S(=O)(=O)N4CCN(C)CC4)ccc3OCC)nc12 [Sildenafil citrate] | inactive: -3.04
COc1ccc(CNc2nc(N3CCC[C@H]3CO)ncc2C(=O)NCc2ncccn2)cc1Cl [Avanafil] | inactive: -0.814
CN(Cc1cc(Br)cc(Br)c1N)C1CCCCC1 [Bromhexine HCl] | inactive: 1.75
CC1CC(OC(=O)C(O)c2ccccc2)CC(C)(C)C1 (centres undefined) [Cyclandelate] | inactive: 1.14
CC(C)n1c(/C=C/C(O)CC(O)CC(=O)O)c(-c2ccc(F)cc2)c2ccccc21 (centres undefined) [Fluvastatin sodium (Lescol)] | inactive: -3.08
CC(C)(C)NC(=O)[C@H]1CC[C@H]2[C@@H]3CC[C@H]4NC(=O)C=C[C@]4(C)[C@H]3CC[C@]12C [Finasteride] | inactive: 1.64
C[C@H](CS)C(=O)N1CCC[C@H]1C(=O)O [Captopril (Capoten)] | inactive: 0.311
CCC(=O)O[C@]1(C(=O)SCF)[C@H](C)C[C@H]2[C@@H]3C[C@H](F)C4=CC(=O)C=C[C@]4(C)[C@@]3(F)[C@@H](O)C[C@@]21C [Fluticasone propionate (Flonase, Veramyst)] | active: 8.24
CCCCCCCCOc1ccccc1C(=O)Nc1ccc(C(=O)OCC[N+](C)(CC)CC)cc1 [Otilonium Bromide] | inactive: -0.301
C[C@@H]1C[C@H]2[C@@H]3CCC4=CC(=O)C=C[C@]4(C)[C@@]3(Cl)[C@@H](O)C[C@]2(C)[C@@]1(OC(=O)c1ccco1)C(=O)CCl [Mometasone furoate] | inactive: 1.88
CCN1CCN(C(=O)N[C@@H](C(=O)N[C@@H]2C(=O)N3[C@@H]2SC(C)(C)[C@@H]3C(=O)O)c2ccccc2)C(=O)C1=O [Piperacillin Sodium] | inactive: -0.785
COc1cnc(NS(=O)(=O)c2ccc(N)cc2)nc1 [Sulfameter (Bayrena)] | inactive: -1.35
COc1ccc(CC2c3cc(OC)c(OC)cc3CC[N+]2(C)CCC(=O)OCCCCCOC(=O)CC[N+]2(C)CCc3cc(OC)c(OC)cc3C2Cc2ccc(OC)c(OC)c2)cc1OC (centres undefined) [Atracurium besylate] | inactive: -2.61
CCCC(C(=O)OCCN(CC)CC)(c1ccccc1)c1ccccc1 [Proadifen HCl] | inactive: -0.714
C#C[C@]1(O)CC[C@H]2[C@@H]3CCC4=CC(=O)CC[C@@H]4[C@H]3CC[C@@]21CC [Levonorgestrel (Levonelle)] | inactive: -2.35
CC[C@H]1OC(=O)C[C@@H](O)[C@H](C)[C@@H](O[C@@H]2O[C@H](C)[C@@H](O)[C@H](N(C)C)[C@H]2O)[C@@H](CCN2C[C@H](C)C[C@H](C)C2)C[C@@H](C)C(=O)/C=C/C(C)=C/[C@@H]1CO[C@@H]1O[C@H](C)[C@@H](O)[C@@H](OC)[C@H]1OC [Tilmicosin] | inactive: -0.233
CC(C)(C)C(=O)OCOP(=O)(COCCn1cnc2c(N)ncnc21)OCOC(=O)C(C)(C)C [Adefovir Dipivoxil (Preveon, Hepsera)] | inactive: -7.68

Compound | secreted FVIII-Gluc luciferase Z-score
CC[C@H](C)C[C@H](C)CCCCCCCCC(=O)N[C@H]1C[C@@H](O)[C@@H](NCCN)NC(=O)[C@@H]2[C@@H](O)CCN2C(=O)[C@H]([C@H](O)CCN)NC(=O)[C@H]([C@H](O)[C@@H](O)c2ccc(O)cc2)NC(=O)[C@@H]2C[C@@H](O)CN2C(=O)[C@H]([C@@H](C)O)NC1=O [Caspofungin acetate] | inactive: -0.353
CCOC(=O)CCC(=O)O[C@H]1[C@H](O[C@@H]2[C@@H](C)[C@H](O[C@H]3C[C@@](C)(OC)[C@@H](O)[C@H](C)O3)[C@@H](C)C(=O)O[C@H](CC)[C@@](C)(O)[C@H](O)[C@@H](C)C(=O)[C@H](C)C[C@@]2(C)O)O[C@H](C)C[C@@H]1N(C)C [Erythromycin Ethylsuccinate] | inactive: -1.21
CCCS(=O)(=O)Nc1ccc(F)c(C(=O)c2c[nH]c3ncc(-c4ccc(Cl)cc4)cc23)c1F [Vemurafenib (PLX4032)] | inactive: 1.96
NS(=O)(=O)c1cc2c(cc1Cl)N=CNS2(=O)=O [Chlorothiazide] | inactive: -1.07
CC(C)c1nc(N(C)S(C)(=O)=O)nc(-c2ccc(F)cc2)c1/C=C/[C@@H](O)C[C@@H](O)CC(=O)O [Rosuvastatin calcium (Crestor)] | inactive: -0.406
COc1ccc(C2CNC(=O)C2)cc1OC1CCCC1 (stereo not drawn) [S-(+)-Rolipram] | inactive: -0.798
CCc1c2c(nc3ccc(OC(=O)N4CCC(N5CCCCC5)CC4)cc13)-c1cc3c(c(=O)n1C2)COC(=O)[C@]3(O)CC [Irinotecan] | inactive: -4.68
CO/N=C(\C(=O)N[C@@H]1C(=O)N2C(C(=O)O)=C(CSC(=O)c3ccco3)CS[C@H]12)c1csc(N)n1 [Ceftiofur HCl] | inactive: -0.572
O=C(NCCO[N+](=O)[O-])c1cccnc1 [Nicorandil (Ikorel)] | inactive: -1.89
O=C1CCC(N2C(=O)c3ccccc3C2=O)C(=O)N1 (centres undefined) [Thalidomide] | inactive: -2.34
CC1(C)O[C@@H]2C[C@H]3[C@@H]4CCC5=CC(=O)C=C[C@]5(C)[C@@]4(F)[C@@H](O)C[C@]3(C)[C@]2(C(=O)CO)O1 [Triamcinolone Acetonide] | active: 9.93
CCCCNc1ccc(C(=O)OCCN(C)C)cc1 [Tetracaine hydrochloride (Pontocaine)] | inactive: 0.0497
CCOC(=O)C1=C(C)NC(C)=C(C(=O)OCC)C1c1ccccc1/C=C/C(=O)OC(C)(C)C [Lacidipine (Lacipil, Motens)] | inactive: -1.46
CN1CCC(=C2c3ccccc3CCc3sccc32)CC1 [Pizotifen malate] | inactive: -4.63
Oc1cc(O)c(Cl)cn1 [Gimeracil] | inactive: -1.64
C[C@@H]1C[C@H]2[C@@H]3CCC4=CC(=O)C=C[C@]4(C)[C@@]3(F)[C@@H](O)C[C@]2(C)[C@@]1(O)C(=O)CO [Dexamethasone] | inactive: 1.46
CCCC(CCC)C(=O)O [Divalproex sodium] | inactive: -1.4
COC(=O)C1=CO[C@@H](O)[C@@H]2C(CO)=CC[C@H]12 [Genipin] | inactive: -2.03
CCNC(=O)CCC/C=C\C[C@@H]1[C@@H](/C=C/[C@@H](O)CCc2ccccc2)[C@H](O)C[C@@H]1O [Bimatoprost] | inactive: -3.09

Three of these compounds, reformatted:
Compound	secreted FVIII-Gluc luciferase Z-score
CCC(=O)O[C@]1(C(=O)SCF)[C@H](C)C[C@H]2[C@@H]3C[C@H](F)C4=CC(=O)C=C[C@]4(C)[C@@]3(F)[C@@H](O)C[C@@]21C [Fluticasone propionate (Flonase, Veramyst)]	active: 8.24
C#C[C@]1(O)CC[C@H]2[C@@H]3CCC4=CC(=O)CC[C@@H]4[C@H]3CC[C@@]21CC [Levonorgestrel (Levonelle)]	inactive: -2.35
C[C@@H]1C[C@H]2[C@@H]3CCC4=CC(=O)C=C[C@]4(C)[C@@]3(F)[C@@H](O)C[C@]2(C)[C@@]1(O)C(=O)CO [Dexamethasone]	inactive: 1.46
